# Assay: Example 2: three-week feeding of experimental diet to rats, food intake and weight gain
# Format: in vivo, rat
# Settings: Sprague-Dawley male rats, diet fed freely for three weeks, 0.2% sesamin (+1.0% CLA)
compound,measurement,value
"c1cc2c(cc1[C@H]1OC[C@H]3[C@@H]1CO[C@@H]3c1ccc3c(c1)OCO3)OCO2 [Sesamin, sesamin]",Food intake,25.3 g/day
same,Weight gain,8.22 g/day
